The values that follow come from doi:10.1101/2025.11.17.685403.

For at least one entry, the source does not settle the construct or the ends of the probe. At least one verdict was read from the data and is not stated in words by the source. For part of these data: Where a protein sequence is shown, tags need not be part of it.

Data set [1] has as its system RFS1 E138A (Walker B) + RIP1 (cShu subunit) + SWS1 (cShu subunit). Nature of the data set: EMSA.
The subject of data set [2] is RFS1 K56A (Walker A) + RIP1 (cShu subunit) + SWS1 (cShu subunit). Nature of the data set: EMSA.
The target of data set [3] is T1, RAD51 (Caenorhabditis elegans) (UniProt Q95Q25).
T1 sequence (looked up, limits assumed): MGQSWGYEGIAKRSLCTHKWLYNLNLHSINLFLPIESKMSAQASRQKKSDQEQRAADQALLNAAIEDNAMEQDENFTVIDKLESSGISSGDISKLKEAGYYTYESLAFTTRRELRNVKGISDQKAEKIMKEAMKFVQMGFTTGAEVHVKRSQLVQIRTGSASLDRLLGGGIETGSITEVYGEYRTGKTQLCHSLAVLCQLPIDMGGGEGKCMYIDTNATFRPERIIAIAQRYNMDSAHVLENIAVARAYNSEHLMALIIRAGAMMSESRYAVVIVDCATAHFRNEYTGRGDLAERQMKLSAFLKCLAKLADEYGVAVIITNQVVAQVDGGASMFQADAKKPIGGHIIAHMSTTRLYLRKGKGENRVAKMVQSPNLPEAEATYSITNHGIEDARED
As to the kind of experiment: fluorescence. Conditions: 2 mM ATP.

For the sequence “TTTTTTTTTTTTTTTTTTTTCTTGACAAGCTTGCGCACT [ss39]”, the binding result in data set [1] and in data set [2] was “binds” throughout.
Regarding “TTTTTTTTTTTTTTTTTTTTTTTTTTTTTTTTTTTTTTT [poly(dT)39]”, in data set [3], the binding result is “binds”.
